According to the supplement of paper PMC9578143, “Small-Molecule Ebselen Binds to YTHDF Proteins Interfering with the Recognition of N^6-Methyladenosine-Modified RNAs” (ACS Pharmacology & Translational Science, 2022):
This is one part of the list. Baselines shift from plate to plate; read single values as rough.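 Hits were defined as a z-score below −3.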

target: T1, YTHDF1 YTH domain (aa 365-554) (UniProt Q9BYJ9); assay: tryptophan fluorescence intensity z-score (mean); higher = higher fluorescence, less quenching (negative = binding / quenching); details: 10 µM
T1 sequence (whole entry): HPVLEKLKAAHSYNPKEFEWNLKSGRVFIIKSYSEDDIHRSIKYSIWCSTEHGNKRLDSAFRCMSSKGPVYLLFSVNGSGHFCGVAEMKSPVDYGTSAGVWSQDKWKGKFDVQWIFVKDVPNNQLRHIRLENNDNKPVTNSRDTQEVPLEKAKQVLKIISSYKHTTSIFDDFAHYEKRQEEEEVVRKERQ

Tryptophan fluorescence intensity z-score, inactive:
CCOC(=O)[C@H](CCc1ccccc1)N[C@H]1CCc2ccccc2N(CC(=O)O)C1=O (plate: M 9-10) -0.416
CCOC(=O)OC(C)OC(=O)[C@@H]1N2C(=O)[C@@H](NC(=O)[C@H](N)c3ccccc3)[C@H]2SC1(C)C (some centres not stated) (plate: M 7-8) 0.059
COc1cc(-c2coc3cc(O)c(OC)c(O)c3c2=O)cc(O)c1OC (plate: M 15-16) -0.183
O=C(O)CS (plate: M 21-22) 0.173
O=C(Cc1cccs1)N[C@@H]1C(=O)N2C(C(=O)[O-])=C(C[n+]3ccccc3)CS[C@H]12 (plate: M 13-14) 0.66
C[C@@]12CCc3occc3[C@H]1CC[C@@]13C[C@@H](CC[C@H]12)[C@@](O)(CO)C3 (plate: M 19-20) 0.297
CC(C)(C)NC[C@H](O)COc1nsnc1N1CCOCC1 (plate: M 5-6) -0.0726
C[C@]12CCC(=O)C=C1CC[C@@H]1[C@@H]2[C@@H](O)C[C@@]2(C)[C@H]1CC[C@]2(O)C(=O)COC(=O)CCC(=O)O (plate: M 3-4) -0.479
NC1(C(=O)O)CCCC1 (plate: M 21-22) 0.623
NCCCC[C@H](N[C@@H](CCc1ccccc1)C(=O)O)C(=O)N1CCC[C@H]1C(=O)O (plate: M 7-8) 0.0783
C=C1c2cccc(O)c2C(=O)C2=C(O)[C@]3(O)C(=O)C(C(N)=O)=C(O)[C@@H](N(C)C)[C@@H]3[C@@H](O)[C@H]12 (plate: M 7-8) -0.205
COc1cc2cc3c4cc(OC)c(OC)cc4cc[n+]3c(C)c2cc1OC (plate: M 17-18) -0.0292
Cn1c(=O)c2nc[nH]c2n(C)c1=O (plate: M 5-6) 0.0806
Cc1scc2c1N(C(=O)CN1CCN(C)CC1)c1ccccc1NC2=O (plate: M 23-24) 0.119
CC(=O)c1ccc(S(=O)(=O)NC(=O)NC2CCCCC2)cc1 (plate: M 11-12) 0.424
COc1ccc(CN(CCN(C)C)c2ccccn2)cc1 (plate: M 5-6) -0.0579
CCCNC(C)C(=O)Nc1ccccc1C (configuration not stated) (plate: M 9-10) -0.402
Nc1ncn([C@@H]2O[C@H](CO)[C@@H](O)[C@H]2O)c(=O)n1 (plate: M 7-8) 0.223
CC(COc1ccccc1)N(CCCl)Cc1ccccc1 (configuration not stated) (plate: M 11-12) -0.556
OC[C@H]1O[C@H]([S-])[C@H](O)[C@@H](O)[C@@H]1O.[Au+] (plate: M 1-2) 0.0151
C[C@@H]1CC[C@@]2(OC1)O[C@H]1C[C@H]3[C@@H]4CC[C@H]5C[C@@H](O)CC[C@]5(C)[C@H]4CC[C@]3(C)[C@H]1[C@@H]2C (plate: M 13-14) 0.191
Nc1ccc(S(=O)(=O)Nc2ncccn2)cc1 (plate: M 5-6) -0.127
C#C[C@]1(OC(C)=O)CC[C@H]2[C@@H]3CCC4=C[C@@H](OC(C)=O)CC[C@@H]4[C@H]3CC[C@@]21C (plate: M 11-12) 0.0997
C#C[C@]1(O)CC[C@H]2[C@@H]3CCC4=CC(=O)CC[C@@H]4[C@H]3CC[C@@]21C (plate: M 3-4) -0.553
O=c1c(O)c(-c2ccccc2)oc2ccccc12 (plate: M 17-18) 0.169
CO[C@@]1(NC(=O)C(C(=O)O)c2ccc(O)cc2)C(=O)N2C(C(=O)O)=C(CSc3nnnn3C)CO[C@@H]21 (some centres not stated) (plate: M 3-4) -0.0417
COC(=O)C1=C(C)NC(C)=C(C(=O)OC)C1c1ccccc1[N+](=O)[O-] (plate: M 3-4) -0.577
Cc1cc(NC(=O)C2=C(O)c3ccccc3S(=O)(=O)N2C)no1 (plate: M 7-8) 0.0386
Cc1cc(C(C)(C)CC(C)(C)C)ccc1OCCOCC[N+](C)(C)Cc1ccccc1 (plate: M 7-8) -0.888
CN(C)CCCN1c2ccccc2CCc2ccc(Cl)cc21 (plate: M 11-12) -0.517
Cc1cc(OC(=O)c2c(C)cc(O)cc2O)cc(O)c1C(=O)O (plate: M 15-16) 0.454
Clc1ccccc1CN1CCc2sccc2C1 (plate: M 11-12) -0.326
C[C@]12C=CC(=O)C=C1CC[C@@H]1[C@@H]2[C@@H](O)C[C@@]2(C)[C@H]1CC[C@]2(O)C(=O)CO (plate: M 5-6) -0.321
O=C(O)c1cc(=O)c2cccc(O)c2[nH]1 (plate: M 17-18) -0.154
O=c1[nH]cc(F)c(=O)[nH]1 (plate: M 3-4) -0.374
CS(=O)(=O)c1ccc([C@@H](O)[C@@H](CO)NC(=O)C(Cl)Cl)cc1 (plate: M 7-8) 0.421
N=c1ccn2c(n1)O[C@H]1[C@H](O)[C@@H](CO)O[C@H]12 (plate: M 23-24) 0.467
C[C@@H]1O[C@@H](Oc2c(-c3ccc(O)c(O)c3)oc3cc(O)cc(O)c3c2=O)[C@H](O)[C@H](O)[C@H]1O (plate: M 17-18) -0.242
O=c1cc(-c2cc(O)c(O)c(O)c2)oc2cc(O)cc(O)c12 (plate: M 19-20) 0.0979
O=C(O)Cc1ccccc1Nc1c(Cl)cccc1Cl (plate: M 1-2) 0.467
CC[C@@]1(O)C(=O)OCc2c1cc1n(c2=O)Cc2cc3cc(O)ccc3nc2-1 (plate: M 21-22) 0.154
CC(=O)OC/C=C(C)/C=C/C=C(C)/C=C/C1=C(C)CCCC1(C)C (plate: M 23-24) 0.342
NS(=O)(=O)c1cc2c(cc1Cl)N=C(CSCc1ccccc1)NS2(=O)=O (plate: M 1-2) 0.208
O=C1C(CC[S+]([O-])c2ccccc2)C(=O)N(c2ccccc2)N1c1ccccc1 (configuration not stated) (plate: M 5-6) 0.264
CC(C(=O)O)[C@H]1CCC2C3CC=C4C[C@@H](O)CC[C@]4(C)C3CC[C@@]21C (stereo partly drawn) [3beta-HYDROXY-23,24-BISNORCHOL-5-ENICACID] (plate: M 15-16) 0.342
O=C(O[C@@H]1Cc2c(O)cc(O)cc2O[C@@H]1c1cc(O)c(O)c(O)c1)c1cc(O)c(O)c(O)c1 (plate: M 15-16) -1.17
CC(C)(CO)[C@@H](O)C(=O)NCCCO (plate: M 13-14) 0.863
CNC[C@H](O)c1cccc(O)c1 (plate: M 5-6) -0.0895
CCN(CC)CCNC(=O)c1ccc(NC(C)=O)cc1 (plate: M 11-12) 0.0247
CCCc1nc(C)c2c(O)nc(-c3cc(S(=O)(=O)N4CCN(CC)CC4)ccc3OCC)nn12 (plate: M 11-12) -0.245
Cc1cn(C2CC(N=[N+]=[N-])C(CO)O2)c(=O)[nH]c1=O (configuration not stated) (plate: M 7-8) 0.251
O=C1C=C2CC3(O)COc4cc(O)ccc4C3=C2C=C1O (configuration not stated) (plate: M 15-16) 0.00503
N[C@H](Cc1ccccc1)C(=O)O (plate: M 21-22) 0.0941
O=c1c(-c2ccc(O)cc2)coc2cc(O)cc(O)c12 (plate: M 21-22) -0.626
COc1cc2c(cc1OC)-c1cc3ccc(OC)c(OC)c3c[n+]1CC2 (plate: M 17-18) -0.232
COc1cc2c(cc1OC)-c1cc3ccc(OC)c(OC)c3c[n+]1CC2 (plate: M 19-20) -0.143
COC(=O)[C@H]1[C@H]2C[C@@H]3c4[nH]c5cc(OC)ccc5c4CCN3C[C@H]2C[C@@H](OC(=O)c2cc(OC)c(OC)c(OC)c2)[C@@H]1OC (plate: M 5-6) -0.187
CC(=O)C12OC(C)(c3ccccc3)OC1CC1C3CCC4=CC(=O)CCC4(C)C3CCC12C (configuration not stated) (plate: M 11-12) -0.912
CNC(=C[N+](=O)[O-])NCCSCc1ccc(CN(C)C)o1 (plate: M 7-8) 0.101
CC1(C)C2CC(=O)O[C@@]3(C)C4=CC(=O)O[C@@H](c5ccoc5)[C@]4(C)CCC3[C@@]2(C)C=C[C@H]1O (some centres not stated) (plate: M 13-14) 0.0745
O=C(O)P(=O)(O)O (plate: M 7-8) 0.135
CCN(CC)CCCC(C)Nc1c2ccc(Cl)cc2nc2ccc(OC)cc12 (configuration not stated) (plate: M 5-6) -0.206
Cc1nc(C)c(Cl)c(O)c1Cl (plate: M 9-10) -0.203
CC(=O)N1CCN(c2ccc(OCC3COC(Cn4ccnc4)(c4ccc(Cl)cc4Cl)O3)cc2)CC1 (configuration not stated) (plate: M 3-4) -0.117
C#C[C@]1(O)CC[C@H]2[C@@H]3CCc4cc(OC)ccc4[C@H]3CC[C@@]21C (plate: M 3-4) -0.142
CC(C)NCC(O)c1ccc(NS(C)(=O)=O)cc1 (configuration not stated) (plate: M 13-14) 0.0379
CO[C@H]1C[C@@H]2CC[C@@H](C)[C@@](O)(O2)C(=O)C(=O)N2CCCC[C@H]2C(=O)O[C@H]([C@H](C)C[C@@H]2CC[C@@H](O)[C@H](OC)C2)CC(=O)[C@H](C)/C=C(\C)[C@@H](O)[C@@H](OC)C(=O)[C@H](C)C[C@H](C)/C=C/C=C/C=C/1C (plate: M 9-10) -0.528

Fetched one by one from the entries so far:
Tryptophan fluorescence intensity z-score, inactive:
CC(C)NCC(O)c1ccc(NS(C)(=O)=O)cc1 (configuration not stated) (plate: M 13-14) 0.0379
CCN(CC)CCNC(=O)c1ccc(NC(C)=O)cc1 (plate: M 11-12) 0.0247
COC(=O)[C@H]1[C@H]2C[C@@H]3c4[nH]c5cc(OC)ccc5c4CCN3C[C@H]2C[C@@H](OC(=O)c2cc(OC)c(OC)c(OC)c2)[C@@H]1OC (plate: M 5-6) -0.187
OC[C@H]1O[C@H]([S-])[C@H](O)[C@@H](O)[C@@H]1O.[Au+] (plate: M 1-2) 0.0151
